Amino acid sequences for entries named in this document (tags omitted). A change or cut given only in a name is not applied to a line headed by its entry.
UniProt P15976: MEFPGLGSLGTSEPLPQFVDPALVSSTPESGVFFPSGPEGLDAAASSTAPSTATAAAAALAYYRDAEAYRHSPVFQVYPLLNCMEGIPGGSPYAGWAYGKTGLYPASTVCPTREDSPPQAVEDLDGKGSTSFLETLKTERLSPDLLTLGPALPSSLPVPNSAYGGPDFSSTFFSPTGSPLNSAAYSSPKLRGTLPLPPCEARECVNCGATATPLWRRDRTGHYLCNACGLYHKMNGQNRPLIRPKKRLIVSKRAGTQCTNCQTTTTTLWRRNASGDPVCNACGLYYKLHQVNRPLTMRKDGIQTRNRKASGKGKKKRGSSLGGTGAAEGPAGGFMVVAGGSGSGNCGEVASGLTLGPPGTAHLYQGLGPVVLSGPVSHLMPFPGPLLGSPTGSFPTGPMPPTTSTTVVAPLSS

In article PMC5946489:

Experiments:
GATA2-3F = target: T1, GATA2-3F (UniProt P23769); assay: DNA pull-down, Western blot; details: Pull-down: probes immobilised on M-280 beads in 5 mM Tris-HCl pH 7.5, 0.5 mM EDTA, 1 M NaCl; 100 ug nuclear extract; protein in a lysate after overexpression; protein details: FLAG (3F); label: 5'-biotin
T1 sequence (looked up, limits assumed): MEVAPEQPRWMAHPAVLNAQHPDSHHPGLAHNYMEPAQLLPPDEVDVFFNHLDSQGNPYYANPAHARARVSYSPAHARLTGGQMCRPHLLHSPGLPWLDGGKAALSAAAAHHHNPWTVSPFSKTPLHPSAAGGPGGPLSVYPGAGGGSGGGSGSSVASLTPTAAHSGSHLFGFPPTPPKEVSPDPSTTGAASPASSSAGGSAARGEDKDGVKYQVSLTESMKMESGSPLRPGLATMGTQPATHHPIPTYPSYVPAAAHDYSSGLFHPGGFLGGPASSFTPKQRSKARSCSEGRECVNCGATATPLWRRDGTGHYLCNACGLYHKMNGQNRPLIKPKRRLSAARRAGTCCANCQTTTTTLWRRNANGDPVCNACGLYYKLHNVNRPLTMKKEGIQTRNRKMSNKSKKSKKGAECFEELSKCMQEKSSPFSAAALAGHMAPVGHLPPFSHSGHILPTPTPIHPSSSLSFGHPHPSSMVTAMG

GATA1-3F = GATA1-3F (UniProt P15976); assay: DNA pull-down, Western blot; details: Pull-down: probes immobilised on M-280 beads in 5 mM Tris-HCl pH 7.5, 0.5 mM EDTA, 1 M NaCl; 100 ug nuclear extract; protein in a lysate after overexpression; protein details: FLAG (3F); label: 5'-biotin

Sequence	binding result (GATA2-3F)	binding result (GATA1-3F)
CTGCCGAAGCTTGGTGCTCGC (double strand) [GATA1/2 MT probe]	binds more weakly	binds more weakly
CTGCCGCCGATTGGTGCTCGC (double strand) [GATA1/2 WT probe]	binds	binds

Construct, isoform or probe ends are uncertain for at least one entry. Where cells or extracts were used, other partners may take part. The comparison behind a weaker result is the experiment's own reference, which may not be listed here. For some of these results: Tags and fusion partners may be left off the protein sequences shown.
